Drawing on patent US20100068766A1, “COMPOSITION FOR CLEAVING AND/OR CONNECTING SINGLE STRAND DNA” (WASEDA UNIVERSITY, priority 2007, published 2010), this text covers binding for two molecules.

No constants are given. Whether binding was seen depends on the method and setting. For some assays here: Binding seen in cells or lysates may run through a third protein. Some results given as binding are weak or reduced against the parent protein; the word gives no strength.

In assay [1] the target is T1, human Ev1 protein (NCBI accession No. AAF21709) (human) (UniProt Q9UI08).
T1 sequence (looked up): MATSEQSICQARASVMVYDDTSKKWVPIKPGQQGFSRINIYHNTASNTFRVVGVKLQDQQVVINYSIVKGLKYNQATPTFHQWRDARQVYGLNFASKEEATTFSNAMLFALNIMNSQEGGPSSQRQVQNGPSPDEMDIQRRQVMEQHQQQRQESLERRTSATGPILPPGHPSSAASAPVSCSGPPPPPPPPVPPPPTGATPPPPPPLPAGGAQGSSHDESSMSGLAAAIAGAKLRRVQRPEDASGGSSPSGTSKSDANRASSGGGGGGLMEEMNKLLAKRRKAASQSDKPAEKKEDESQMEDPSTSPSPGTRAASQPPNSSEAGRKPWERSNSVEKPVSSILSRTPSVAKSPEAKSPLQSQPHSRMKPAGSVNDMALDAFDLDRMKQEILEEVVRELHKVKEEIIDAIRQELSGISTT
Kind of assay: pull-down, Ev1 coupled to Affi-Gel 10 beads, 10 µg Rad51B, SDS-PAGE, Coomassie stain.

The target of assay [2] is T2, Rad51B protein (UniProt O15315).
T2 sequence (looked up): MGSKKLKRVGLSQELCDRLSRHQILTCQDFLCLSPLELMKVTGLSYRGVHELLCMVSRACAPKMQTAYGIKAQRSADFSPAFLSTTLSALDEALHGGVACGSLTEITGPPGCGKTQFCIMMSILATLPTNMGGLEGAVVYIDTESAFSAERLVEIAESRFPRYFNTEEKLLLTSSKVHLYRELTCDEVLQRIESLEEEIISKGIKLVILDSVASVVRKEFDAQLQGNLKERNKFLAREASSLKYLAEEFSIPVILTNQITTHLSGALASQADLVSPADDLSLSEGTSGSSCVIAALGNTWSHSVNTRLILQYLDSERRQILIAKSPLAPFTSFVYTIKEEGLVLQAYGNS
Kind of assay: pull-down with purified proteins on Affi-Gel 10 beads.

Assay [3] concerns the target T2, Rad51B protein. The assay can be described thus: pull-down, Rad51B coupled to Affi-Gel 10 beads, 10 µg Ev1, SDS-PAGE, Coomassie stain.
Assay [4] deals with T2, Rad51B protein. Kind of assay: pull-down with protein-coupled Affi-Gel 10 beads, SDS-PAGE, Coomassie stain.
In assay [5] the target is T2, Rad51B protein. Kind of assay: pull-down, Rad51B coupled to Affi-Gel 10 beads, SDS-PAGE, Coomassie stain.

B1: Rad51B protein (protein, UniProt O15315-1 1-350, looked up)
chain: T2 sequence (looked up)
Turning to B1, in assay [1], the binding result is “binds”.

B2: human Ev1 protein (NCBI accession No. AAF21709) (protein, UniProt Q9UI08-2 1-418, looked up)
chain: T1 sequence (looked up)
In the case of B2, the binding entry in assay [2], in assay [3], in assay [4] and in assay [5] was “binds” in each case.
